Test results reported in the supplement of paper PMC10849652.
Some of the results follow.

Chains of the proteins cited; added tags and fusions are not shown. Lines headed by an entry give the natural chain unless they say otherwise; changes in a name come on top.
UniProt Q6P9B6: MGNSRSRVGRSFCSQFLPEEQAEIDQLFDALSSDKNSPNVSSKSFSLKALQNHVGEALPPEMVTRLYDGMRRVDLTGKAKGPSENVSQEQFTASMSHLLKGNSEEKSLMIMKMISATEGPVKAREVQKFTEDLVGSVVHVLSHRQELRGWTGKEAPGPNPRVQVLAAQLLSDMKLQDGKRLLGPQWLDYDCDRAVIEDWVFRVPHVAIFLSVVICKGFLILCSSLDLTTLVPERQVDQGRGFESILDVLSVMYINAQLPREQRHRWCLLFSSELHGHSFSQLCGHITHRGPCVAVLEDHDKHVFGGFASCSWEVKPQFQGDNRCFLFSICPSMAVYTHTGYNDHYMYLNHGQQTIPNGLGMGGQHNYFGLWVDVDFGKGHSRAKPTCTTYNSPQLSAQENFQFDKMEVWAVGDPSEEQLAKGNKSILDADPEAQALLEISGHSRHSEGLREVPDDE
UniProt Q9HCC0: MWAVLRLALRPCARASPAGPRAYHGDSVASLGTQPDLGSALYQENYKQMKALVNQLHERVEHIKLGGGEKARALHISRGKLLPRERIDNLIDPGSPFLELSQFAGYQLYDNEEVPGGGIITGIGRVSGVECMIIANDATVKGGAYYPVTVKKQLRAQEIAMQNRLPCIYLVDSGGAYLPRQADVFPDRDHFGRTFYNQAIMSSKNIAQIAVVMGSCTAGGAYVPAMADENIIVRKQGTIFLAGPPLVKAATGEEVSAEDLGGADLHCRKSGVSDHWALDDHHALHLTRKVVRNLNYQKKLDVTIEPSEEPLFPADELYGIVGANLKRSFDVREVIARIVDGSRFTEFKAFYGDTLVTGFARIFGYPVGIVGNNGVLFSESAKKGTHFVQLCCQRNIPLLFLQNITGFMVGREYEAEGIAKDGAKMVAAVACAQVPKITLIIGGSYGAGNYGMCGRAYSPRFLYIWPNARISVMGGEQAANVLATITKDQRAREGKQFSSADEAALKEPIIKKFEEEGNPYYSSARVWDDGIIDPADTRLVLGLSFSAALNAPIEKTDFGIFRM
UniProt Q9NRN9: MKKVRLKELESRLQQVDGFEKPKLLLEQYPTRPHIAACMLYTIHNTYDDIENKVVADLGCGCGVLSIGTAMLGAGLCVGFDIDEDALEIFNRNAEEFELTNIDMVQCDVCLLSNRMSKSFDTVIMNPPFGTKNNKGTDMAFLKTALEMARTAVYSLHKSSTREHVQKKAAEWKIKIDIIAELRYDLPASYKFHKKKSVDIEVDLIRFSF
UniProt Q6N075: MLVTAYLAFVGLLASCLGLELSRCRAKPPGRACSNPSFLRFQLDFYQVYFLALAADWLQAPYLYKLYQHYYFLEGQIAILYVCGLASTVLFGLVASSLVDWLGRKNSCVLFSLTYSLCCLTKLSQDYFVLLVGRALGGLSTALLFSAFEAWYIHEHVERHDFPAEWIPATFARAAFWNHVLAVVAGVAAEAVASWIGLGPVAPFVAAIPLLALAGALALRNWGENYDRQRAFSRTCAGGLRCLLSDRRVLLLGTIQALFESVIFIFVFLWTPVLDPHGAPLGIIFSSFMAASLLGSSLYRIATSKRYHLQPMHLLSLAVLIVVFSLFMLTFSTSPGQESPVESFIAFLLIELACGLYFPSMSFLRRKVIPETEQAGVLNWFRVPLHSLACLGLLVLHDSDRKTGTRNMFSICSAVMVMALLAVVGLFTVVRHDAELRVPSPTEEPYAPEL
UniProt Q8IWA4: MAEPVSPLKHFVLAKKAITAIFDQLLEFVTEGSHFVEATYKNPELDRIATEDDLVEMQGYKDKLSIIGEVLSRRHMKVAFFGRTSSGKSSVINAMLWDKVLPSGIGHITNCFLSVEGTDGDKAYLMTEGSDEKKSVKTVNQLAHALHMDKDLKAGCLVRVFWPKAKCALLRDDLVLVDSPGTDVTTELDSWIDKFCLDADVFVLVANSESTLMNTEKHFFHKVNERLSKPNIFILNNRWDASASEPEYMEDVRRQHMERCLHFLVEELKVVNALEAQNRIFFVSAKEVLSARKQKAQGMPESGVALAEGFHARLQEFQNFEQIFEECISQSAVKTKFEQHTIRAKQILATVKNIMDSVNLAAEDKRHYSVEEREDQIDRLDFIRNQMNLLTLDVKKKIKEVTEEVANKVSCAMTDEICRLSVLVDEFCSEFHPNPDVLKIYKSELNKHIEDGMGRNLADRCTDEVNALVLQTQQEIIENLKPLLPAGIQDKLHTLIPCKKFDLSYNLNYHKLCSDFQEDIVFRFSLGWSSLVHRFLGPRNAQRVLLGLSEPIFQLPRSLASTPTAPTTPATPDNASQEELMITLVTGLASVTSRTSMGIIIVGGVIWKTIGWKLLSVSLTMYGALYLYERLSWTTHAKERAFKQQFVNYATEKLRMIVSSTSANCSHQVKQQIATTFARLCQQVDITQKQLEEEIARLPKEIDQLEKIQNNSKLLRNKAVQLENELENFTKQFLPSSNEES
UniProt Q68D91: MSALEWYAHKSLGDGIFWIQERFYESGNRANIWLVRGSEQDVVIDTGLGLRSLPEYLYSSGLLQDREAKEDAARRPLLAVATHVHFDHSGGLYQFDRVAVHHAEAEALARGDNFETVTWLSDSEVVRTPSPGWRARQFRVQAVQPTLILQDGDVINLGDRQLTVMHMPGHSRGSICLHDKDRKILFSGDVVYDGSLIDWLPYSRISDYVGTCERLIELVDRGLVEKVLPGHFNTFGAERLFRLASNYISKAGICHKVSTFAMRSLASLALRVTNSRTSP
UniProt Q06413, whole entry, looked up: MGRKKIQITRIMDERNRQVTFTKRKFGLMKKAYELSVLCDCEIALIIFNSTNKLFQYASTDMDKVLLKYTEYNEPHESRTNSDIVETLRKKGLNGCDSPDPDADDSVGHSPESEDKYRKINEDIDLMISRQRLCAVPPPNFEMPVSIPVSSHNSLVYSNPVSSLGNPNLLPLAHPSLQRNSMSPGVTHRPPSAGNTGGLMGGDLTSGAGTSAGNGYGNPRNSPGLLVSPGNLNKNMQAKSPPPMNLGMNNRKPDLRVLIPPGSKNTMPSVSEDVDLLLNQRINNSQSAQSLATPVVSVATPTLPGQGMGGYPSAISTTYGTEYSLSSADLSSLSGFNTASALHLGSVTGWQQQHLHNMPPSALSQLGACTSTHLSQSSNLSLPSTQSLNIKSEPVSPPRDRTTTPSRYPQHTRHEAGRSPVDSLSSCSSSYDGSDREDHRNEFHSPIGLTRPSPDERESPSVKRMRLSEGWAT
UniProt Q9Y316: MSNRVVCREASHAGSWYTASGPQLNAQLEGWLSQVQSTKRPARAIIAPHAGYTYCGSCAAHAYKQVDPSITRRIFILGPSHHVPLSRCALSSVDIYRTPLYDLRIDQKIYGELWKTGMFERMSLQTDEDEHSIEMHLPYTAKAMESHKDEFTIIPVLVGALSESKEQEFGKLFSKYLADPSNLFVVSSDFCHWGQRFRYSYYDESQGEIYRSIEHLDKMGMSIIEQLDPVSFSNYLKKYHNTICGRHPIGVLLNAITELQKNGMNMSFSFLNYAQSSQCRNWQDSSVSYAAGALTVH
UniProt Q96G25: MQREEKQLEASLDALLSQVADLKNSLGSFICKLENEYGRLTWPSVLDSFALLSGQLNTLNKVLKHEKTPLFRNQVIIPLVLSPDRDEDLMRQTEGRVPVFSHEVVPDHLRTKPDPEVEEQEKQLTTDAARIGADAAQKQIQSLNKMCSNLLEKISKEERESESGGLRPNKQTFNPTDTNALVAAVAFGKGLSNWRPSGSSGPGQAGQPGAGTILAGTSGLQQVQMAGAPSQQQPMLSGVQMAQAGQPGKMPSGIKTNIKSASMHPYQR
UniProt O95568: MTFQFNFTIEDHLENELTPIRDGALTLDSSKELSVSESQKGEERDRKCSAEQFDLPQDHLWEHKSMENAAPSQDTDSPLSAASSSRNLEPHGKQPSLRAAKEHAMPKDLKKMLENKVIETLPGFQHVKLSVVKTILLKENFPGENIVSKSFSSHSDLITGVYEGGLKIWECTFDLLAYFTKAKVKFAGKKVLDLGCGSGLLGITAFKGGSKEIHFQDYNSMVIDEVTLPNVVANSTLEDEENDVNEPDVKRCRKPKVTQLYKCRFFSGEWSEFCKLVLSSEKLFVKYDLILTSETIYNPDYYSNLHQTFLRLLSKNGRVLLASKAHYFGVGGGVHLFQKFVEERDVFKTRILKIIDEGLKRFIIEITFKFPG
UniProt P40925: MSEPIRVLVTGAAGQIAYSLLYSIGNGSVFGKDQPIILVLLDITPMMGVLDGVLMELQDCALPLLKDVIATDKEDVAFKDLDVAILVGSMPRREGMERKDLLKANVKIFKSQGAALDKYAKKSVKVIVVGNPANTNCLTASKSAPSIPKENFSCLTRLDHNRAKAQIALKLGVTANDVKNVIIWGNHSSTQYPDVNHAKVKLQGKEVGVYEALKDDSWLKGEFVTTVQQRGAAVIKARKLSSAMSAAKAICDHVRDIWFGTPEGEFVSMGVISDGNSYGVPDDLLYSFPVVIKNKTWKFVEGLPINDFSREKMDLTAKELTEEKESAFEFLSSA
UniProt Q9BQP7: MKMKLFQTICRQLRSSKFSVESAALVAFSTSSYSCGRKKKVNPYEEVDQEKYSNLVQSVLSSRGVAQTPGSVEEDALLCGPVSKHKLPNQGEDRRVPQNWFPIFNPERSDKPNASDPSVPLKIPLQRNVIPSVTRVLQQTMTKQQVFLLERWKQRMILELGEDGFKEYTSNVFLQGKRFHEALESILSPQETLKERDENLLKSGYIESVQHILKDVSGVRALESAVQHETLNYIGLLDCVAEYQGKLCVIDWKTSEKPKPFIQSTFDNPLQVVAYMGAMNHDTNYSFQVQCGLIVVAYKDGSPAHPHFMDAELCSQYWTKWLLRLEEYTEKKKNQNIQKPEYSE
UniProt Q14703: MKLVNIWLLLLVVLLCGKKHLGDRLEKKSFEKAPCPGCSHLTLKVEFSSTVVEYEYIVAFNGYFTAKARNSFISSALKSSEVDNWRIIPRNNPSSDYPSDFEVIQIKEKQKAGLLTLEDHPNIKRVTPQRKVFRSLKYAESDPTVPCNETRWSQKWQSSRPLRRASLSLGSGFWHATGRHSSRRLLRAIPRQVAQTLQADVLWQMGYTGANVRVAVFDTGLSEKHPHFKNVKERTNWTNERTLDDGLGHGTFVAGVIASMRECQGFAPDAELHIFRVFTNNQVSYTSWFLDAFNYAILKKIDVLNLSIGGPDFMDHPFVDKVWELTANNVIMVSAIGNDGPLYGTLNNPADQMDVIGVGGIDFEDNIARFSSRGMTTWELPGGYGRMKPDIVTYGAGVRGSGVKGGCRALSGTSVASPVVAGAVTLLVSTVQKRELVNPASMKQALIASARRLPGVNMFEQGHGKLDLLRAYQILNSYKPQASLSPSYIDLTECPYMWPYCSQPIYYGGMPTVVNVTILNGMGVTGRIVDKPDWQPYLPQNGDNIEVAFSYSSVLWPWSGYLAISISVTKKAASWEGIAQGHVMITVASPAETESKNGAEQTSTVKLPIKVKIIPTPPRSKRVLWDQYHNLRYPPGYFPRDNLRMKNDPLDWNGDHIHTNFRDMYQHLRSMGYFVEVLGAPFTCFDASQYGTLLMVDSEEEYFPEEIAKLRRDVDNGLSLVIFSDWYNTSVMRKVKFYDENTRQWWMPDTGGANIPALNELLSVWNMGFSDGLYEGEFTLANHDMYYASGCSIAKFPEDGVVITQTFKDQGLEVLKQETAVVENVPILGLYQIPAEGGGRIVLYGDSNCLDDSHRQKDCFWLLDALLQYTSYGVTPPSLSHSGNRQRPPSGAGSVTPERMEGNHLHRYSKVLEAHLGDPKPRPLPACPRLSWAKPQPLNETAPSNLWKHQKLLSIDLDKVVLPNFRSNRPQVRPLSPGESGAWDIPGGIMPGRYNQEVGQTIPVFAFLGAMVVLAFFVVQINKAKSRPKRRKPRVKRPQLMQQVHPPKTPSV
UniProt Q7L2J0: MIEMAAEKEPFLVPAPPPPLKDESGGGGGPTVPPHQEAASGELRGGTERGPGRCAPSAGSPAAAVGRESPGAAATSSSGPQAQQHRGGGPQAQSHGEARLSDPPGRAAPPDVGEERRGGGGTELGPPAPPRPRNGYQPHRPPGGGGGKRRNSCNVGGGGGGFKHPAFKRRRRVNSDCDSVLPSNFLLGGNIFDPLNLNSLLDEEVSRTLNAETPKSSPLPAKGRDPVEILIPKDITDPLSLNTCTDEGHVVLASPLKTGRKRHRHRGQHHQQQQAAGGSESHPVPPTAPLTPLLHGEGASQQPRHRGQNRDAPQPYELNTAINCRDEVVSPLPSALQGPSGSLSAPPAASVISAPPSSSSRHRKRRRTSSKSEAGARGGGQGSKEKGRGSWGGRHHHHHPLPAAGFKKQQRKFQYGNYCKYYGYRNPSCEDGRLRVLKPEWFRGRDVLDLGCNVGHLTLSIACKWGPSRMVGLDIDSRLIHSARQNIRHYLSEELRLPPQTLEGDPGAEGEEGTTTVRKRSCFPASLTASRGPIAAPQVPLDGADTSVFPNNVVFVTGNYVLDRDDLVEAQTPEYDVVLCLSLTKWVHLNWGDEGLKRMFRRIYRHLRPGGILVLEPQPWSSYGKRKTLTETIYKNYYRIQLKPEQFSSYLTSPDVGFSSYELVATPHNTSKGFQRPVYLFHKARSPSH

Experiments:
Assay in all cases: log2 fold change, soluble protein after heating vs DMSO (PISA); higher = thermal stabilisation; K562 cells, 10 uM, 30 min; active = over 0.2 and 3.5 SD of the protein, either way, in both replicates (recomputed)
[1] = compound: CC1=C(C=C(C=C1)NC(=O)C2=CC(=CC=C2)C(C)(C)C#N)NC3=CC4=C(C=C3)N=CN(C4=O)C
Method in brief: (§1)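 Soluble protein was quantified by TMTpro 16plex LC-MS/MS after channel sums were equalised. It was obtained as the supernatant after 21,000xg for 90 min from pooled aliquots of K562 cells (2×10^6 cells/mL, 10 μM compound, 30 min) heated for 3 min across 48°C-58°C and extracted in PBS with 0.5% NP-40 at 4°C. Thermal stability values are relative to control samples and come from duplicates. They are given as log2 fold changes.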

[2] = compound: CC1=C(C=C(C=C1)NC(=O)C2=CC(=CC=C2)N(C)C)NC(=O)C3=CC=C(C=C3)O
Method in brief: as §1

[3] = compound: CC1=CC=C(C=C1)SC2=C3C=C(SC3=CN=C2)C(=O)N
Method in brief: as §1

[4] = compound: CC1=NC(=CC=C1)C2=C(N=C(N2)C(C)(C)C)C3=CC4=NC=CN=C4C=C3
Method in brief: as §1

[5] = compound: CCCCN(Cc1ccc(C(=O)NO)cc1)C(=O)Nc1ccccc1 [Nexturastat A]
Method in brief: as §1

[6] = compound: CCCS(=O)(=O)Nc1ccc(F)c(C(=O)c2c[nH]c3ncc(-c4ccc(Cl)cc4)cc23)c1F [vemurafenib]
Method in brief: as §1

[7] = compound: CCCS(=O)(=O)Nc1ccc(F)c(C(=O)c2c[nH]c3ncc(Cl)cc23)c1F
Method in brief: as §1

[8] = compound: CCCc1cc(C)[nH]c(=O)c1CNC(=O)c1cc(-c2ccnc(N3CCN(C)CC3)c2)cc2c1cnn2C(C)C
Method in brief: as §1

[9] = compound: CCN(CC)Cc1ccc2cc(COC(=O)Nc3ccc(C(=O)NO)cc3)ccc2c1 [givinostat]
Method in brief: as §1

[10] = compound: CCN(CCCOc1ccc2c(Nc3cc(CC(=O)Nc4cccc(F)c4)[nH]n3)ncnc2c1)CCOP(=O)(O)O [barasertib]
Method in brief: as §1

Target	log2 fold change [1]	log2 fold change [2]	log2 fold change [3]	log2 fold change [4]	log2 fold change [5]	log2 fold change [6]	log2 fold change [7]	log2 fold change [8]	log2 fold change [9]	log2 fold change [10]
METAP1D (UniProt Q6UB28)	inactive: -0.022	inactive: 0.009	inactive: 0.047	inactive: -0.09	inactive: -0.087	inactive: -0.032	inactive: -0.053	inactive: 0.056	inactive: -0.054	inactive: -0.074
MCCC1 (UniProt Q96RQ3)	inactive: 0.021	inactive: -0.055	inactive: -0.012	inactive: -0.004	inactive: -0.021	inactive: 0.044	inactive: 0.02	inactive: 0.001	inactive: -0.004	inactive: 0.017
MFN2 (UniProt O95140)	inactive: -0.021	inactive: -0.029	inactive: 0.018	inactive: 0.009	inactive: -0.022	inactive: 0.019	inactive: 0.064	inactive: -0.004	inactive: 0.01	inactive: 0.025
MED10 (UniProt Q9BTT4)	inactive: -0.041	inactive: -0.053	inactive: -0.033	inactive: 0.123	inactive: 0.043	inactive: 0.102	inactive: -0.094	inactive: 0.063	inactive: -0.007	–
MEAK7 (UniProt Q6P9B6)	inactive: 0.081	inactive: 0.053	inactive: -0.005	inactive: 0.015	inactive: -0.006	inactive: 0.012	inactive: 0.067	inactive: -0.055	inactive: 0.085	inactive: 0.025
MCAM (UniProt P43121)	inactive: 0.009	inactive: -0.005	inactive: 0.037	inactive: 0.011	inactive: -0.007	inactive: -0.022	inactive: 0.003	inactive: -0.068	inactive: -0.018	inactive: -0.014
ME2 (UniProt P23368)	inactive: -0.01	inactive: -0.057	inactive: -0.044	inactive: -0.017	inactive: 0.015	inactive: 0.011	inactive: 0.002	inactive: 0.022	inactive: 0.027	inactive: 0.018
MBNL1 (UniProt Q9NR56)	inactive: -0.011	inactive: 0.047	inactive: -0.01	inactive: -0.01	inactive: -0.039	inactive: -0.087	inactive: -0.009	inactive: -0.028	inactive: 0.019	inactive: -0.018
MCCC2 (UniProt Q9HCC0)	inactive: 0.048	inactive: -0.028	inactive: 0.026	inactive: 0.04	inactive: -0.04	inactive: 0.011	inactive: 0.013	inactive: -0.028	inactive: -0.049	inactive: -0.02
METTL5 (UniProt Q9NRN9)	inactive: -0.011	inactive: 0.004	inactive: 0.01	inactive: 0.007	inactive: -0.035	inactive: -0.016	inactive: -0.013	inactive: -0.002	inactive: 0.01	inactive: 0.001
MFSD5 isoform 2 (UniProt Q6N075)	inactive: 0.038	inactive: 0.015	inactive: -0.078	inactive: 0.064	inactive: -0.014	inactive: 0.023	inactive: -0.118	inactive: -0.039	inactive: -0.039	inactive: 0.122
MFN1 (UniProt Q8IWA4)	inactive: -0.007	inactive: 0.035	inactive: 0.039	inactive: -0.04	inactive: -0.032	inactive: -0.061	inactive: -0.021	inactive: -0.19	inactive: 0.053	inactive: 0.016
MBLAC2 (UniProt Q68D91)	inactive: 0	inactive: 0.013	inactive: -0.016	inactive: -0.047	inactive: 0.001	inactive: -0.082	inactive: -0.011	inactive: -0.058	inactive: 0.045	inactive: -0.021
MCU (UniProt Q8NE86)	inactive: 0	inactive: 0.051	inactive: 0.094	inactive: 0.002	inactive: 0.002	inactive: 0.026	inactive: 0.022	inactive: -0.075	inactive: 0.013	inactive: 0.014
MGST2 (UniProt Q99735)	inactive: -0.045	inactive: 0.051	inactive: 0.013	inactive: -0.137	inactive: -0.026	inactive: -0.016	inactive: -0.025	inactive: -0.126	inactive: -0.053	inactive: 0.017
MEF2C isoform 5 (UniProt Q06413)	inactive: -0.052	inactive: 0.026	inactive: -0.061	inactive: -0.052	inactive: 0.007	inactive: -0.008	inactive: -0.079	inactive: 0.05	inactive: -0.039	inactive: -0.039
MEMO1 (UniProt Q9Y316)	inactive: -0.019	inactive: -0.005	inactive: -0.015	inactive: -0.033	inactive: -0.036	inactive: 0.019	inactive: 0.012	inactive: -0.03	inactive: -0.16	inactive: 0.02
METAP1 (UniProt P53582)	inactive: -0.048	inactive: 0.027	inactive: 0.022	inactive: 0.019	inactive: -0.022	inactive: 0.001	inactive: 0.003	inactive: -0.016	inactive: -0.076	inactive: -0.034
MED8 isoform 2 (UniProt Q96G25)	inactive: -0.085	inactive: 0.038	inactive: -0.03	inactive: 0.089	inactive: 0.045	active: 0.36	inactive: -0.027	inactive: 0.081	inactive: -0.038	inactive: -0.059
MCTS1 isoform 3 (UniProt Q9ULC4)	inactive: 0.033	inactive: 0.011	inactive: 0.003	inactive: 0.023	inactive: -0.073	inactive: 0.02	inactive: -0.007	inactive: -0.051	inactive: -0.039	inactive: -0.016
METTL18 (UniProt O95568)	inactive: -0.026	inactive: 0.018	inactive: -0.032	inactive: 0.028	inactive: -0.164	inactive: 0.014	inactive: 0.05	inactive: -0.042	inactive: -0.245	inactive: 0.012
MDH1 isoform 3 (UniProt P40925)	inactive: 0.024	inactive: 0.003	inactive: 0.045	inactive: 0.027	inactive: -0.043	inactive: -0.004	inactive: -0.004	inactive: -0.058	inactive: -0.015	inactive: -0.002
MGAT4B isoform 3 (UniProt Q9UQ53)	inactive: -0.082	inactive: 0.089	inactive: -0.026	inactive: -0.045	inactive: -0.107	inactive: 0.031	inactive: -0.042	inactive: 0.106	inactive: -0.025	inactive: 0.038
MGME1 (UniProt Q9BQP7)	inactive: 0.011	inactive: 0.002	inactive: 0.029	inactive: 0.012	inactive: 0.003	inactive: 0.022	inactive: 0.051	inactive: 0.014	inactive: 0.002	inactive: -0.02
MBTPS1 (UniProt Q14703)	inactive: -0.059	inactive: 0.086	inactive: -0.029	inactive: -0.133	inactive: 0.092	inactive: -0.077	inactive: -0.035	inactive: 0.201	inactive: -0.09	inactive: -0.085
MFSD10 (UniProt Q14728)	inactive: -0.069	inactive: 0.02	inactive: -0.046	inactive: -0.035	inactive: -0.008	inactive: 0.067	inactive: -0.027	inactive: -0.076	inactive: -0.038	inactive: -0.013
MED15 (UniProt Q96RN5)	inactive: -0.021	inactive: -0.014	inactive: 0.028	inactive: 0.015	inactive: -0.047	inactive: -0.007	inactive: -0.026	inactive: -0.015	inactive: 0.03	inactive: -0.011
MDN1 (UniProt Q9NU22)	inactive: -0.023	inactive: -0.021	inactive: 0.034	inactive: 0.061	inactive: -0.009	inactive: 0.02	inactive: 0.074	inactive: 0.027	inactive: 0.083	inactive: 0.047
MAST4 (UniProt O15021)	inactive: 0.003	inactive: -0.246	inactive: 0.061	inactive: 0.044	inactive: -0.08	inactive: 0.021	inactive: 0.055	inactive: 0.072	inactive: -0.024	inactive: 0.028
MEPCE (UniProt Q7L2J0)	inactive: 0.077	inactive: 0.025	inactive: -0.014	inactive: -0.252	inactive: -0.057	inactive: 0.062	inactive: 0.083	inactive: 0.05	inactive: -0.04	inactive: 0.025

Just log2 fold change [1] and log2 fold change [2] (2 entries from above):
Target	log2 fold change [1]	log2 fold change [2]
MEAK7 (UniProt Q6P9B6)	inactive: 0.081	inactive: 0.053
ME2 (UniProt P23368)	inactive: -0.01	inactive: -0.057
